The target of experiment [1] is KO_CRD1 (human OX40 aa 29 to 65 replaced with the mouse counterparts) (human; mouse). The experiment is described as follows: flow cytometry on transfected 293F cells. On the technique in general: Flow cytometry measures light scatter and fluorescence of single cells or particles in a stream.
In experiment [2] the target is KO_CRD2 (human OX40 aa 66 to 107 replaced with the mouse counterparts) (human; mouse). The experiment is described as follows: flow cytometry on transfected 293F cells.

Results on one molecule are retold here after patent publication US20160137740A1.

These are yes or no findings as the source states them, for the method shown. Binding calls can cover weak binding; strength is not graded here.

B1: 9B12 (antibody, mouse IgG1, V domains shown)
VH: EVQLQESGPSLVKPSQTLSLTCSVTGDSFTSGYWNWIRKFPGNRLEYMGYISYNGITYHNPSLKSRISITRDTSKNHYYLQLNSVTTEDTATYFCARYRYDYDGGHAMDYWGQGTLVTVSS
VL: DIQMTQTTSSLSASLGDRVTISCRASQDISNYLNWYQQKPDGTVKLLIYYTSKLHSGVPSRFSGSGSRTDYSLTITDLDQEDIATYFCQQGSALPWTFGQGTKVEIKR
Turning to B1, the binding result in experiment [1] and in experiment [2] was “binds” each time.
